This is an account of results in paper PMC12372902.

The chains behind the UniProt entries cited, without tags or fusion partners. Where a name states a change or a piece, a line headed by the entry shows the natural chain unless it says otherwise.
UniProt Q15172, whole entry: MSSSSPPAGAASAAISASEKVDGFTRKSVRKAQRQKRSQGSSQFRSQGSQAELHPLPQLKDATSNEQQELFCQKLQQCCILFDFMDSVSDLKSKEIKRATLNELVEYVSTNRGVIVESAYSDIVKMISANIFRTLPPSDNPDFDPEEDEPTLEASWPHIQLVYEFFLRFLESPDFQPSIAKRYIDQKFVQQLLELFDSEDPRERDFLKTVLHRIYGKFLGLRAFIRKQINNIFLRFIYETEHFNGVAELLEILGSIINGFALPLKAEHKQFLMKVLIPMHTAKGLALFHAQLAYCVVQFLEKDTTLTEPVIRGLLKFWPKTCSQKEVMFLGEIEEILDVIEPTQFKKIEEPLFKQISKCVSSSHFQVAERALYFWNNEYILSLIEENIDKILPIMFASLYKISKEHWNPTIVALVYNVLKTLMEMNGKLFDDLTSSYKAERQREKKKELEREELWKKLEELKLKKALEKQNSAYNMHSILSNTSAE
UniProt P01106, whole entry: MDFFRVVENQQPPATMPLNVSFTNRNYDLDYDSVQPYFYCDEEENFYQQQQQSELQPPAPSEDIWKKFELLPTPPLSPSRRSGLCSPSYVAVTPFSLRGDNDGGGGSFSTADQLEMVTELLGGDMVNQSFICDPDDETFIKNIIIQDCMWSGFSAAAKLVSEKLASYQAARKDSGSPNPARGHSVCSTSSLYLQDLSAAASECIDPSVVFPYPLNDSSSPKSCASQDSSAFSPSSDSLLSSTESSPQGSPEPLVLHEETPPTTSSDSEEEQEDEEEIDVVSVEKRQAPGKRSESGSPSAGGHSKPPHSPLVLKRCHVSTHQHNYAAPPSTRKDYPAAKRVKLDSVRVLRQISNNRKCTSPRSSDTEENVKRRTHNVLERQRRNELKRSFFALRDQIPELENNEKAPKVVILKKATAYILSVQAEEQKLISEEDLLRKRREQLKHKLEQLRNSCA

Results are given in words; binding and its absence hold for the method and conditions named. Binding seen in cells or lysates may run through a third protein. Some binding calls cover weakened binding; strength is not graded here.

For this assay, the target named is hemagglutinin (HA)-tagged PPP2CA (catalytic subunit of PP2A) (UniProt P67775). Kind of assay: co-IP; lysates of HCT116 or SW1116 cells transfected with Flag-AKR1B10 (WT, point mutants or truncations; varying plasmid amounts in shAKR1B10 cells) and HA-PPP2CA; primary antibody and Protein A/G PLUS-Agarose at 4°C overnight, Western blot.
On to “Flag-tagged AKR1B10 truncation lacking the N-terminal residues 1 to 100 (from UniProt O60218 101-316) (domain or fragment)”, for which the binding result is on record as “binds”.

For “endogenous B56α (PPP2R5A), regulatory subunit of PP2A (from UniProt Q15172 1-486)”, the binding result is listed as “binds”.

In the case of “Flag-tagged AKR1B10 K263R (from UniProt O60218 1-316) (enzyme)”, the binding entry is recorded as “binds”.

Take “endogenous c-Myc (from UniProt P01106 1-454)”: the binding entry was “binds”.

Take “Flag-tagged AKR1B10 (aldo-keto reductase family 1 member B10), wild type (from UniProt O60218 1-316) (enzyme)”: the binding entry is “binds”.

On to “Flag-tagged AKR1B10 P219S (from UniProt O60218 1-316) (enzyme)”, for which the binding result is listed as “binds”.
